# Measured values from patent US20220348876A1, “METABOLISM GUIDES DEFINITIVE LINEAGE SPECIFICATION DURING ENDOTHELIAL TO HEMATOPOIETIC TRANSITION” (Amniotics AB, priority 2019, published 2022).
# At least one compound was matched to its structure with a doubt left.
# What was measured:
# EHT cells = assay: EHT cell subculture with compounds, flow cytometry; assay type: cell-based, human; details: deriving from EHT cells, day 6; DCA 3 mM
# HE cells = assay: Colony forming unit assay of subcultured HE cells; assay type: cell-based, human
# Method: Subcultured HE cells were treated with StemPro Accutase Cell Dissociation Reagent for 2 minutes at 37° C. and dissociated cells were resuspended in 3 ml Methocult H4230 (STEMCELL Technologies, France) (prepared according to manufacturer's instructions, with 20 mL Iscove's Modified Dulbecco's Medium containing 2.5 μg hSCF, 5 μg GM-CSF, 2.5 μg IL-3 and 500 U EPO). Each mixture was divided onto 2 wells of a non-tissue culture treated 6-well plate. Following a 12-day incubation in a humidified incubator at 37° C., 5% CO2, 20% O2, colonies were morphologically distinguished and scored. For globin analysis, colonies in Methocult wells were harvested with PBS, washed thoroughly and frozen in RLT buffer with β-mercaptoethanol. Following RNA extraction and RT (Qiagen), gene expression was assessed with taqman probes by q-PCR. The taqman probes used in this study are HBA1/2 (Hs00361191_g1), HBE1 (Hs00362216_m1), HBG2/1 (Hs00361131_g1) and KLF1 (Hs00610592_m1).
# C57Bl/6xB6.SJL mice = assay: In vivo compound injection of pregnant mice, fetal liver analysis at E14.5
# Method: (§1) Pregnant female C57Bl/6xB6.SJL mice were injected intraperitoneally at E9.5 with UK5099 (4 mg/kg) or DCA (200 mg/kg) or PBS (control). Embryos were harvested at E14.5 and individually weighed and processed. Fetal livers were dissected and homogenized in 800 μL ice cold PBS supplemented with 2% fetal bovine serum (FBS) and FL cells were washed in PBS with 2% FBS. For the differentiated lineage panel, cells were stained with B220 and CD19 (B-cell markers)-PE, CD3e-APC, Ter119-PeCy7 and CD71-FITC and analyzed on a BD FACSARIA III. For the HSC panel, samples were first treated with ammonium chloride solution (STEMCELL Technologies, France) to lyse red blood cells, washed twice in ice cold PBS with 2% FBS, stained with CD3e, B220, Ter119, Gr1 (Lineage)-PeCy5, c-Kit-Efluor780, Sca1-BV421, CD48-FITC, CD150-BV605 and 7-AAD (for dead cell exclusion) and analyzed on a BD FACSARIA III. […] For plating of CFU assays, 100 LT-HSCs were sorted (gating strategy shown in FIG. 13, d) and resuspended in 3.0 mL Methocult M3434 (STEMCELL Technologies, France). Each mixture was divided onto 2 wells of a non-tissue culture treated 6-well plate. Following a 14-day incubation in a humidified incubator at 37° C., 5% CO2, 20% O2, colonies were morphologically distinguished and scored.
# LT-HSCs = assay: CFU assay of LT-HSCs sorted from E14.5 fetal livers of treated embryos; assay type: in vivo, mice; details: DCA-treated embryos vs control and UK5099
# Method: as §1
# NSG mice = NSG mice transplantation of DCA-treated HE cells; assay type: in vivo
# Method: Sorted human HE cells (350,000) were mixed with OP9-DL1 stroma (60,000) and subcultured for 3 days with or without DCA (3 mM) on Matrigel (16 μg/cm^2, Corning)-coated 12-well plates in HE medium^30. Between 100,000-150,000 cells from control or DCA samples were transplanted into sub-lethally irradiated (300 cGy) 8-week-old female NOD/Cg-Prkdc^scid Il2rg^tm1Wjl/SzJ mice (NSG, The Jackson Laboratory) together with 20,000 whole bone marrow support cells from C57Bl/6.SJL mice (CD45.1+/CD45.2+, in house breeding). Cells were transplanted in single cell solution in 250 μL PBS with 2% FBS through intravenous tail vein injection. Drinking water of transplanted NSG mice was supplemented with ciprofloxacin (125 mg/L, HEXAL) for 3 weeks after transplantation to prevent infection. Mice were housed in a controlled environment with 12-hour light-dark cycles with chow and water provided ad libitum. Experiments and animal care were performed in accordance with the Lund University Animal Ethical Committee.
# Peripheral blood (PB) was collected from the tail vein into EDTA-coated microvette tubes (Sarstedt, Cat #20.1341.100). Peripheral blood was lysed for mature erythrocytes in ammonium chloride solution (STEMCELL technologies) for 10 minutes at room temperature, washed and stained for cell surface antibodies for 45 minutes at 4° C., washed and filtered prior to flow cytometry analysis on the FACS AriaIII (BD).
# Bone marrow was analyzed at the 12-week transplantation endpoint. Mice were euthanized by spinal dislocation followed by the dissection of both right and left femurs, tibias and iliac bones. Bone marrow was harvested through crushing with a pestle and mortar and cells were collected in 20 mL ice-cold PBS with 2% FBS, filtered and washed (350×g, 5 min). Bone marrow cells were lysed for red blood cells (ammonium chloride solution, STEMCELL technologies) for 10 minutes at room temperature, washed and stained for cell surface antibodies for 45 minutes at 4° C., washed and filtered prior to FACS analysis on the FACS AriaIII (BD). […]
# [1] = E14.5, DCA 200 mg/kg i.p. at E9.5, vs control and UK5099
# [2] = E14.5, DCA versus control and UK5099
structure (smiles),measurement,setting,value
"O=C(O)C(Cl)Cl [DCA, dichloroacetate]",increase in the percentage of CD43+CD45+ cells,EHT cells,but not EHT cells
same,CFUs,HE cells; 3-day DCA,did not have an effect
same,CFU-Es,HE cells; 6-day DCA treatment,decrease
same,CFU-M colonies,HE cells; 6-day DCA treatment,significant increase
same,HPC-1 levels in fetal liver,C57Bl/6xB6.SJL mice; [1],significantly increased
same,HPC-2 levels in fetal liver,C57Bl/6xB6.SJL mice; [1],significantly increased
same,B cell levels in fetal liver,C57Bl/6xB6.SJL mice; [2],increased
same,T cell levels in fetal liver,C57Bl/6xB6.SJL mice; [2],increased
same,"stage 0, 4 and 5 erythroid populations in the FL","C57Bl/6xB6.SJL mice; E14.5, vs control and UK5099",significant decreases
same,"stages 1, 2 and 3 erythroid populations in the FL","C57Bl/6xB6.SJL mice; E14.5, vs control and UK5099",no significant differences
same,frequency of phenotypic long-term HSCs (LT-HSCs),"C57Bl/6xB6.SJL mice; fetal liver E14.5, i.p. at E9.5, UK5099 4 mg/kg or DCA 200 mg/kg",not affected
same,BFU-E colonies from sorted LT-HSCs,LT-HSCs,less
same,CFU-GM colonies from sorted LT-HSCs,LT-HSCs,significantly more
same,common lymphoid progenitor (CLP) population,"NSG mice; BM, week 12",significant increase
same,human B cells in the PB,"NSG mice; week 8, DCA-treated cells vs untreated",Significantly more
same,levels of myeloid cells in the BM,NSG mice; week 12,no difference
